Reference: PMC6532146
No constants are given. Whether binding was seen depends on the method and setting. In cells and extracts the contact can be indirect. Some results given as binding are weak or reduced against the parent protein; the word gives no strength.

Amino acid sequences for entries named in this document (tags omitted).
UniProt Q12929: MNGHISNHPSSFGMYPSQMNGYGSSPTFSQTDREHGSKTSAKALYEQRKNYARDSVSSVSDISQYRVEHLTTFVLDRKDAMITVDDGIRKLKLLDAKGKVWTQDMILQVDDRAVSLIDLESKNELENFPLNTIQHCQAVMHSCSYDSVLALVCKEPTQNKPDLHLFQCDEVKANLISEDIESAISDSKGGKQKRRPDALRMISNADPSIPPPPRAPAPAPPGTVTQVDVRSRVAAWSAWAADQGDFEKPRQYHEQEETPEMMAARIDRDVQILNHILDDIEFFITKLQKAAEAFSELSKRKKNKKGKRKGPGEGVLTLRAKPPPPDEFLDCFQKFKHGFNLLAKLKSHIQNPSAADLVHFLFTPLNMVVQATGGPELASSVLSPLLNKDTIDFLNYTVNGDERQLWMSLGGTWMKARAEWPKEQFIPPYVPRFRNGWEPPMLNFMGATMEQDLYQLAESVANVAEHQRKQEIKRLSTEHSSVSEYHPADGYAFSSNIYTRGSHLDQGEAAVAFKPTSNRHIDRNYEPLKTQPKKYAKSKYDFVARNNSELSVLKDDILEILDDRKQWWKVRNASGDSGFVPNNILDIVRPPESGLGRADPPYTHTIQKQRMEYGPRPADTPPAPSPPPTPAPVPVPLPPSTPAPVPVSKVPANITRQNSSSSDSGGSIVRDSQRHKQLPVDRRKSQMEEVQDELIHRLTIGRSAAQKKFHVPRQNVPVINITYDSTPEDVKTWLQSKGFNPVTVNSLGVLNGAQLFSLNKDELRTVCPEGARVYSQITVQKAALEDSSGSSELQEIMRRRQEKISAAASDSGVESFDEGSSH

How the values were obtained:
[1] = biological target: Epidermal growth factor receptor (EGFR) (human (endogenous in A549, H460 and MDA-MB-468)) (UniProt P00533); assay: co-IP; as a1, but MDA-MB-468 cells treated with the small molecule EE02 (10 uM) for 24 h before lysis; anti-EGFR immunoprecipitation, anti-Eps8 blot
[2] = biological target: Epidermal growth factor receptor (EGFR) (human (endogenous in A549, H460 and MDA-MB-468)) (UniProt P00533); assay: co-IP; endogenous proteins; anti-EGFR antibody (or IgG) coupled to AminoLink plus resin (Pierce CoIP kit), 1000 ug lysate of A549, H460 or MDA-MB-468 cells, incubated 2 h at room temperature; immunoblot with anti-Eps8; cells untreated or treated with DMSO

binding [1]: binds weakly
binding [2]: binds
Substance: Epidermal growth factor receptor pathway substrate 8 (Eps8) (from UniProt Q12929 1-822)
